Patent US20240299362A1, “EXOSOME PACKAGING AND TARGETED AUTOPHAGY” (University of Ottawa, priority 2017, published 2024)
Results are given in words; binding and its absence hold for the method and conditions named. Binding seen in cells or lysates may run through a third protein. Some binding calls cover weakened binding; strength is not graded here.

Chains of the proteins cited; added tags and fusions are not shown. Residues count along the entry.
UniProt P63082: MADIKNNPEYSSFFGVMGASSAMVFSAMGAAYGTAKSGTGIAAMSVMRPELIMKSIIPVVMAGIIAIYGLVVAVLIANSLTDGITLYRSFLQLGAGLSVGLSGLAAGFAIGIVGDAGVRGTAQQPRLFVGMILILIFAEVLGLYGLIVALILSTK
UniProt P50518, residues 2-226: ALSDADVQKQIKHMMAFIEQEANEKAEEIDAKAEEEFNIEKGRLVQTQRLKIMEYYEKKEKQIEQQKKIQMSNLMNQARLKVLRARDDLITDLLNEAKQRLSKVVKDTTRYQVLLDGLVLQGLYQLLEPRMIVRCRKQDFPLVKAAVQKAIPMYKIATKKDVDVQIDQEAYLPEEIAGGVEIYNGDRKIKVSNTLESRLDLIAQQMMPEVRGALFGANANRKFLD

Assays:
ATP6V0C (mouse (MEF)) [1] = target: ATP6V0C (mouse (MEF)) (UniProt P63082); experiment: proximity ligation assay in fixed cells (FIG. 3C)
ATP6V0C (mouse (MEF)) [2] = target: ATP6V0C (mouse (MEF)) (UniProt P63082); experiment: proximity ligation assay for ATP6V1E1 and ATP6V0C in fixed cells

binding (ATP6V0C (mouse (MEF)) [1]): binds
binding (ATP6V0C (mouse (MEF)) [2]): binds
Substance: ATP6V1E1 (from UniProt P50518 2-226)
